The supplement of paper PMC4604168 (melanoma cell lines)
The list shows a part of the results. Repeats are few or missing, and single values can be far off.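 Cells were imaged in 1,536-well plates, and nuclei stained with an antibody against cleaved PARP were counted against all DNA-stained nuclei to give the apoptosis fraction. Screening doses were chosen to leave most cells alive, and resting and induced cleaved-PARP levels differ strongly between cell lines.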

Tests used:
Experiment in all cases: cleaved PARP positive nuclei fraction relative to DMSO control; melanoma cells; higher = more apoptosis
Settings in all cases: library dose: low library concentration; 72 h
WM115 = tested on: WM115
WM1716 = tested on: WM1716
WM1745 = tested on: WM1745
WM3526 = tested on: WM3526
WM3619 = tested on: WM3619
WM451Lu = tested on: WM451Lu

Compound | cleaved PARP positive nuclei fraction (WM115) [%] | cleaved PARP positive nuclei fraction (WM1716) [%] | cleaved PARP positive nuclei fraction (WM1745) [%] | cleaved PARP positive nuclei fraction (WM3526) [%] | cleaved PARP positive nuclei fraction (WM3619) [%] | cleaved PARP positive nuclei fraction (WM451Lu) [%]
COc1ccc(-c2ccc3c(N4CCOCC4)nc(N4C[C@@H](C)O[C@@H](C)C4)nc3n2)cc1CO + Oc1nc(-c2ccc(C(F)(F)F)cc2)nc2c1CSCC2 [XAV939] (first compound 0.02 µM, partner dose 2 µM) | 140 | 161 | 125 | 110 | 102 | 124
O=C(Nc1ccccc1)c1cc([N+](=O)[O-])ccc1Cl + COC(=O)c1sccc1S(=O)(=O)Nc1ccc(Nc2ccccc2)cc1OC [GSK0660] (first compound 2 µM, partner dose 1 µM) | 223 | 170 | 113 | 75.6 | 94.8 | 75.3
O=C(O)C(=O)Nc1sc2c(c1C(=O)O)CCNC2 + O=c1cc(-c2cccc3c2Sc2ccccc2S3)oc(N2CCOCC2)c1 [KU55933] (first compound 1.66667 µM, partner dose 1 µM) | 138 | 70.9 | 119 | 133 | 74.4 | 381
CCc1ccc(CCOc2ccc(CC3SC(=O)NC3=O)cc2)nc1 (stereo not drawn) [pioglitazone] + COc1ccc2c(c1)CCC1C2CCC2(C)C(NCCCCCCN3C(=O)C=CC3=O)CCC12 [U73122] (first compound 2 µM, partner dose 0.4 µM) | 226 | 67.7 | 228 | 71 | 65.1 | 110
CN(C)S(=O)(=O)c1ccc2c(c1)/C(=C/c1cc3c([nH]1)CCCC3)C(=O)N2 + Cc1cc([N+](=O)[O-])ccc1NS(=O)(=O)c1cc(Cl)ccc1Cl [FH535] (first compound 0.4 µM, partner dose 1 µM) | 273 | 79.8 | 114 | 61.7 | 70.5 | 129
O=C(Nc1ccccc1)c1cc([N+](=O)[O-])ccc1Cl + Oc1nc(-c2ccc(C(F)(F)F)cc2)nc2c1CSCC2 [XAV939] (first compound 2 µM, partner dose 2 µM) | 46.8 | 163 | 119 | 29.5 | 92.5 | 126
CN(C)S(=O)(=O)c1ccc2c(c1)/C(=C/c1cc3c([nH]1)CCCC3)C(=O)N2 + O=C1NC(=O)/C(=C/c2ccc(-c3ccc(F)cc3O)o2)S1 [AS252424] (first compound 0.4 µM, partner dose 1 µM) | 301 | 113 | 119 | 66.6 | 93.6 | 61.1
CN(NC(=O)CC(=O)NN(C)C(=S)c1ccccc1)C(=S)c1ccccc1 + CCCCCCCCCCCC1=C(O)C(=O)C=C(O)C1=O [Embelin] (first compound 0.006 µM, partner dose 1.2 µM) | 81.4 | 101 | 197 | 146 | 102 | 39.8
COc1ccc(COc2ccc(Cc3cnc(N)nc3N)cc2OC)cc1 + COc1cc(N2CCC(N3CCN(C)CC3)CC2)ccc1Nc1ncc(Cl)c(Nc2ccccc2S(=O)(=O)C(C)C)n1 [NVP-TAE684] (first compound 1 µM, partner dose 0.08 µM) | 84.8 | 43.6 | 113 | 72.2 | 70.2 | 64.7
Cn1cc(/C=C2\C(=O)Nc3cccnc32)c2ccccc21 + CCCCCCCCCCCC1=C(O)C(=O)C=C(O)C1=O [Embelin] (first compound 0.4 µM, partner dose 1.2 µM) | 208 | 53.3 | 107 | 67.4 | 91 | 58.1
CCc1ccc(CCOc2ccc(CC3SC(=O)NC3=O)cc2)nc1 (stereo not drawn) [pioglitazone] + COc1ccc(COc2ccc(Cc3cnc(N)nc3N)cc2OC)cc1 [GW2580] (first compound 2 µM, partner dose 1 µM) | 44.5 | 92.9 | 91 | 142 | 80.2 | 123
O=C(O)c1ccc(-c2c[nH]c3ncc(-c4ccccc4)cc23)cc1C1CCCC1 + COc1cc(N2CCC(N3CCN(C)CC3)CC2)ccc1Nc1ncc(Cl)c(Nc2ccccc2S(=O)(=O)C(C)C)n1 [NVP-TAE684] (first compound 0.16 µM, partner dose 0.08 µM) | 53 | 172 | 241 | 57.2 | 92.9 | 37.2
O=C1NC(=O)/C(=C/c2ccc(-c3ccc(F)cc3O)o2)S1 + c1cc(-c2cnn3cc(-c4ccc(OCCN5CCCCC5)cc4)cnc23)ccn1 [Dorsomorphin] (first compound 1 µM, partner dose 0.4 µM) | 129 | 43.5 | 101 | 80.1 | 94.7 | 56.9
O=C(Nc1ccccc1)c1cc([N+](=O)[O-])ccc1Cl + O=c1cc(-c2cccc3c2Sc2ccccc2S3)oc(N2CCOCC2)c1 [KU55933] (first compound 2 µM, partner dose 1 µM) | 97.1 | 135 | 101 | 68.2 | 69.7 | 174
CCN(CC)CCCCNc1ncc2cc(-c3cc(OC)cc(OC)c3)c(NC(=O)NC(C)(C)C)nc2n1 + O=C1NC(=O)/C(=C/c2ccc(-c3ccc(F)cc3O)o2)S1 [AS252424] (first compound 0.1 µM, partner dose 1 µM) | 144 | 124 | 84.5 | 72.5 | 85.2 | 56.6
O=S(=O)(c1ccccc1)N(CC(F)(F)F)c1ccc(C(O)(C(F)(F)F)C(F)(F)F)cc1 + Oc1nc(-c2ccc(C(F)(F)F)cc2)nc2c1CSCC2 [XAV939] (first compound 1.4 µM, partner dose 2 µM) | 75.8 | 206 | 134 | 73.8 | 99.4 | 243
COc1ccc2c(c1)CCC1C2CCC2(C)C(NCCCCCCN3C(=O)C=CC3=O)CCC12 (stereo not drawn) + O=C1NC(=O)/C(=C/c2ccc(-c3ccc(F)cc3O)o2)S1 [AS252424] (first compound 0.4 µM, partner dose 1 µM) | 54.2 | 121 | 125 | 109 | 376 | 84.4
CN(C)S(=O)(=O)c1ccc2c(c1)/C(=C/c1cc3c([nH]1)CCCC3)C(=O)N2 + O=C(Nc1ccccc1)c1cc([N+](=O)[O-])ccc1Cl [GW9662] (first compound 0.4 µM, partner dose 2 µM) | 193 | 57.3 | 112 | 61.9 | 92.3 | 41.8
NCC(=O)Nc1ccc(-n2nc(C(F)(F)F)cc2-c2ccc3c(ccc4ccccc43)c2)cc1 + O=C(Nc1ccccc1)c1cc([N+](=O)[O-])ccc1Cl [GW9662] (first compound 1 µM, partner dose 2 µM) | 53.2 | 111 | 107 | 324 | 93.8 | 72.8
N#Cc1c(O)c2c(-c3ccc(-c4ccccc4O)cc3)csc2[nH]c1=O + Cc1cc([N+](=O)[O-])ccc1NS(=O)(=O)c1cc(Cl)ccc1Cl [FH535] (first compound 2 µM, partner dose 1 µM) | 90 | 62.4 | 96.3 | 101 | 83.1 | 57.2
O=C(O)C(=O)Nc1sc2c(c1C(=O)O)CCNC2 + Cn1cc(/C=C2\C(=O)Nc3cccnc32)c2ccccc21 [GW441756] (first compound 1.66667 µM, partner dose 0.4 µM) | 163 | 85.9 | 110 | 87.6 | 95.1 | 72.9
COC(=O)c1sccc1S(=O)(=O)Nc1ccc(Nc2ccccc2)cc1OC + COc1cc2ncnc(Nc3ccc(Oc4ccccc4)cc3)c2cc1OC [SrcI1] (first compound 1 µM, partner dose 2 µM) | 170 | 73.1 | 116 | 62.2 | 74.3 | 43.5
COc1ccc(COc2ccc(Cc3cnc(N)nc3N)cc2OC)cc1 + Oc1cc(-c2nc(-c3ccccc3)[nH]c2-c2ccncc2)ccc1Cl [L779450] (first compound 1 µM, partner dose 0.2 µM) | 124 | 72.7 | 227 | 529 | 93.2 | 159
CCN(CC)CCCCNc1ncc2cc(-c3cc(OC)cc(OC)c3)c(NC(=O)NC(C)(C)C)nc2n1 + O=C(O)C(=O)Nc1sc2c(c1C(=O)O)CCNC2 [TCS401] (first compound 0.1 µM, partner dose 1.66667 µM) | 85.2 | 66.9 | 95.9 | 73.1 | 64.6 | 21.8
O=C(O)c1ccc(-c2c[nH]c3ncc(-c4ccccc4)cc23)cc1C1CCCC1 + CCc1ccc(CCOc2ccc(CC3SC(=O)NC3=O)cc2)nc1 [pioglitazone] (first compound 0.16 µM, partner dose 2 µM) | 140 | 78.2 | 140 | 78.2 | 83.6 | 474
Oc1nc(-c2ccc(C(F)(F)F)cc2)nc2c1CSCC2 + Cn1cc(/C=C2\C(=O)Nc3cccnc32)c2ccccc21 [GW441756] (first compound 2 µM, partner dose 0.4 µM) | 71.5 | 98.7 | 118 | 64.8 | 104 | 109
COc1ccc2c(c1)CCC1C2CCC2(C)C(NCCCCCCN3C(=O)C=CC3=O)CCC12 (stereo not drawn) + COc1ccc(-c2ccc3c(N4CCOCC4)nc(N4C[C@@H](C)O[C@@H](C)C4)nc3n2)cc1CO [KU0063794] (first compound 0.4 µM, partner dose 0.02 µM) | 67.4 | 119 | 113 | 161 | 108 | 65.9
N#Cc1c(O)c2c(-c3ccc(-c4ccccc4O)cc3)csc2[nH]c1=O + Oc1cc(-c2nc(-c3ccccc3)[nH]c2-c2ccncc2)ccc1Cl [L779450] (first compound 2 µM, partner dose 0.2 µM) | 166 | 113 | 296 | 72.7 | 71.2 | 222

Some of the entries above, set out differently:
Compound	cleaved PARP positive nuclei fraction (WM115) [%]	cleaved PARP positive nuclei fraction (WM1716) [%]	cleaved PARP positive nuclei fraction (WM1745) [%]	cleaved PARP positive nuclei fraction (WM3526) [%]	cleaved PARP positive nuclei fraction (WM3619) [%]	cleaved PARP positive nuclei fraction (WM451Lu) [%]
O=C(O)c1ccc(-c2c[nH]c3ncc(-c4ccccc4)cc23)cc1C1CCCC1 + COc1cc(N2CCC(N3CCN(C)CC3)CC2)ccc1Nc1ncc(Cl)c(Nc2ccccc2S(=O)(=O)C(C)C)n1 [NVP-TAE684] (first compound 0.16 µM, partner dose 0.08 µM)	53	172	241	57.2	92.9	37.2
CN(C)S(=O)(=O)c1ccc2c(c1)/C(=C/c1cc3c([nH]1)CCCC3)C(=O)N2 + O=C(Nc1ccccc1)c1cc([N+](=O)[O-])ccc1Cl [GW9662] (first compound 0.4 µM, partner dose 2 µM)	193	57.3	112	61.9	92.3	41.8
